Results of single-concentration screens

Measurements from “University of Dundee, Small-Polar-MMV Screening Library” (2021), ChEMBL document CHEMBL3988442.

Values are the deposited “Percent Effect”, in %.
The record does not define 0% and 100%; most values in the screen are far below 50% and negative numbers occur (in some assays of this library far below -100).
This is an unselected part of the compounds tested.
Two or more numbers in one place are separate tests of the same structure; such repeats can differ widely.

Mtb cholesterol medium: 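Whole-cell growth test on Mycobacterium tuberculosis, read after 4 days in a medium based on cholesterol and the lipid DPPC; the read-out is not stated. Concentration: 50 µM. Higher reads as more growth inhibition (inferred: compounds with an IC50 in retests scored well above the rest). Of about 69,000 compounds tested this way, about 370 (0.54%) reached 50% or more in at least one test.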
Mtb glucose medium: 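Phenotypic screen: M. tuberculosis growth, glucose 7H9 medium, 3 days; the read-out is not stated. Compounds at 50 µM. Direction is inferred from retests: higher values go with more growth inhibition. Of about 69,000 compounds tested this way, about 760 (1.1%) reached 50% or more in at least one test.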

compound,Mtb cholesterol medium,Mtb glucose medium
CC(C)CC(C(=O)N1CCCSCC1)N1CCCCC1=O (stereo unspecified),-25.5,-0.2378
CCC(O)CNC(=O)c1coc(COc2ccc3sc(C)nc3c2)n1 (stereo unspecified),-11.53,-1.971 & 0.7299
CC(C)c1sc(Cl)nc1C(=O)N1CCN(c2ccccn2)CC1,-10.73,-1.378
CC(C)(C#N)CCCS(=O)(=O)c1nccn1-c1cccc(F)c1,16.71,9.981
Cc1nc(C)n(CC2CCCCN2CCCS(=O)(=O)N(C)C)n1 (stereo unspecified),-32.92,-19.42
Cc1nc(CN2CCCC(CCc3ccc(F)cc3F)C2)c[nH]1 (stereo unspecified),12.92,24.19
CO[C@H]1CN(C(C)C)C[C@@H]1NC(=O)c1cc(-c2ccccc2F)n[nH]1,2.545,11.16
COc1cccn(CC(=O)N2CCCC3(CCCO3)CC2)c1=O (stereo unspecified),-15.87,-1.426
CNS(=O)(=O)c1cccc(CNC(=O)c2c(C)nn(C)c2C)c1,-7.898,-22.21
CCNC(=O)N1CCC(Nc2nccc(NCC)n2)CC1,2.211,3.501
O=C(O)C(F)(F)F.O=C(O)C(F)(F)F.[H][C@]12CO[C@H](CNC(=O)c3cccnc3)[C@@]1([H])CCN(Cc1ccco1)C2,1.532,5.093
CCN1C[C@@H](C(=O)O)[C@H](c2cccc(OC)c2)C1,-9.476 & 4.806,-26.33
CCc1cc(N(C)Cc2c(C)nn(C)c2C)n2nccc2n1,-13.57,0.4134
CN1CCN([C@@H]2CCN(CC3=Cc4cc(Cl)ccc4OC3)C[C@H]2O)CC1,15.51,18.38
CC(C)(C)c1n[nH]c(C2CN(CCc3ccncc3)CCO2)n1 (stereo unspecified),2.981,4.402
N#Cc1ncn(CC(=O)N2CCCC2c2cccs2)n1 (stereo unspecified),-13.21,13.06 & 2.454
c1ccc(-c2nnc3sc(CCN4CCCC4)nn23)cc1,25.94,15.04
CC(C)n1c(=O)c2ccccc2n(CCN(C)C)c1=O.Cl,-9.531,-12.01
CCC(NC(=O)Nc1ccc(OC)c(C)c1)c1noc(C)n1 (stereo unspecified),-13.4,26.46
O=C(O)C(F)(F)F.[H][C@@]12COC[C@]1(COc1ncccc1F)CN(C(=O)C1=CCCC1)C2,8.437,14.09
O=C(NCc1ccco1)N1CCC(n2ccc(C(F)(F)F)n2)CC1,37.71,47.15
Cc1cc(NC(=O)CN2CCCC(Cn3cncn3)C2)no1 (stereo unspecified),9.939,12.53
Cc1nonc1CN(C)Cc1nc(-c2ccccc2Cl)oc1C,4.952,20.63
COc1ccc(Cc2ncc3c(n2)CN(C(=O)CCO)C3)cc1,-54.91,-92.83
CSCC(CCO)NC(=O)Nc1cc(F)ccc1C (stereo unspecified),9.694,1.091
O=S(=O)(N1CCOCC1)N1CCCCC1CCn1cccn1 (stereo unspecified),-9.316,-23.66
CCc1cc(C)nc(N2CCN(C(C)c3nc(C)no3)CC2)n1 (stereo unspecified),4.762,14.99
COc1ccccc1CC(=O)NC1CCCc2cn[nH]c21 (stereo unspecified),15.52,30.1
O=C(O)C(F)(F)F.c1ccc(C[C@H]2CN(C3CCOCC3)CC[C@H]2OCC2CC2)cc1,20.71,11.6
O=C(O)C(F)(F)F.c1cnc(NC2COC3(CCN(Cc4cc[nH]n4)CC3)C2)nc1 (stereo unspecified),-19.67,-0.309
O=C(NCC(=O)N1CCc2ccccc2C1)c1ccoc1,-7.296,-24.12
CC(Cn1ccnc1)NC(=O)NCCN1CCCCCC1=O (stereo unspecified),10.66,-24.34
O=S(=O)(NCCn1ccc(-c2ccncc2)n1)C1CC1,3.304,8.626
COCC(=O)N1CCOC(c2ccc(N(C)C)cn2)C1 (stereo unspecified),-21.36,2.76
O=C(O)C(F)(F)F.[H][C@@]12OCCN(Cc3ccc(F)c(F)c3)[C@@]1([H])CC[C@@H]2OC,-67.36,-94.95
Cn1cnc2c1CCN(Cc1ccc(Cl)c3cccnc13)C2,-16.98,0.1711
O=C(COc1ccccc1)NS(=O)(=O)Cc1ccccc1,-16.55,-20.59
Cc1cccc(C2(C(=O)NC(C)Cn3ccnc3)CC2)c1 (stereo unspecified),-6.302,-43.36 & -2.518
COc1cc2c(cc1CNC(=O)Cc1cc(C)[nH]n1)OC(C)C2 (stereo unspecified),-13.16,-9.417
Cn1cncc1-c1nnc([C@H]2CCN(Cc3ccc(F)c(F)c3)C2)o1,1.092,0.1982 & 5.51
O=C(O)C(F)(F)F.[H][C@@]12OCCN(CC3CCOCC3)[C@@]1([H])CC[C@H]2OCC1CC1,-14.34 & -11.3,-46.95
O=C(O)C(F)(F)F.O=C(O)C(F)(F)F.[H][C@]12CCN(Cc3ccco3)[C@@]1([H])CC[C@@H](COCc1cccc(C)n1)O2,-14.48,-17.06
CC1CN(C)CCN1C(=O)c1ccc(-n2cnnc2)cc1 (stereo unspecified),-19.49,4.706
Cn1cc(CN2CCC3(CC2)CCN(C(=O)c2cscn2)CC3)cn1.O=C(O)C(F)(F)F,5.168,-19.47
COc1ccc(NCC(=O)NCC(=O)N2CCCC2)c(C(F)(F)F)c1,-1.854,6.142
Cc1cnc(CCNC(=O)NCCc2ccc(O)cc2)s1,22.47,8.094
CC(C)(C)C(=O)N1CCN(Cn2nccc2-c2cccnc2)CC1,1.986,-10.62
COc1ccc(Cl)cc1S(=O)(=O)N(C)CC(=O)Nc1ccon1,-8.63,7.139
CC(C)c1ccc(O)c(C(=O)NC2CCN(c3ncccn3)CC2)c1,-94.78,56.77 & 51.15
O=C(CN1C=Nc2ccccc2S1(=O)=O)NCc1ccccc1,10.08,14.23
CNS(=O)(=O)CC1CCCN1C(=O)c1ccc(C)c(C)c1 (stereo unspecified),-16.56,-24.04
COc1ncccc1C(=O)N1CCCC1c1nc(-c2ccccc2)no1 (stereo unspecified),0.6184,17.44
C=Cc1ccc(C(=O)NC2CCCc3nc(N(C)C)ncc32)cc1 (stereo unspecified),-3.135 & 9.478,20.14
CNC(=O)c1csc(-c2ccoc2)n1,-6.605,4.281
COc1nn(C)c2c1CCCN(C(=O)c1ccc3ccccc3n1)C2.O=C(O)C(F)(F)F,-12.42,-2.27
CNc1nc(C(=O)NCC2CCOc3ccccc3C2)cs1 (stereo unspecified),-13.87,-0.6202 & 7.997
CCN1CCCC(CNC(=O)C2(c3cc(C)cc(C)c3)CCC2)C1 (stereo unspecified),-10.27,1.072

The last 6 entries again:

compound,Mtb cholesterol medium,Mtb glucose medium
COc1ncccc1C(=O)N1CCCC1c1nc(-c2ccccc2)no1 (stereo unspecified),0.6184,17.44
C=Cc1ccc(C(=O)NC2CCCc3nc(N(C)C)ncc32)cc1 (stereo unspecified),-3.135 & 9.478,20.14
CNC(=O)c1csc(-c2ccoc2)n1,-6.605,4.281
COc1nn(C)c2c1CCCN(C(=O)c1ccc3ccccc3n1)C2.O=C(O)C(F)(F)F,-12.42,-2.27
CNc1nc(C(=O)NCC2CCOc3ccccc3C2)cs1 (stereo unspecified),-13.87,-0.6202 & 7.997
CCN1CCCC(CNC(=O)C2(c3cc(C)cc(C)c3)CCC2)C1 (stereo unspecified),-10.27,1.072